# Some of the results follow.
# Target: T1, OsSMF1 (Oryza sativa, UniProt Q6ZLB0 1-436)
# T1 sequence: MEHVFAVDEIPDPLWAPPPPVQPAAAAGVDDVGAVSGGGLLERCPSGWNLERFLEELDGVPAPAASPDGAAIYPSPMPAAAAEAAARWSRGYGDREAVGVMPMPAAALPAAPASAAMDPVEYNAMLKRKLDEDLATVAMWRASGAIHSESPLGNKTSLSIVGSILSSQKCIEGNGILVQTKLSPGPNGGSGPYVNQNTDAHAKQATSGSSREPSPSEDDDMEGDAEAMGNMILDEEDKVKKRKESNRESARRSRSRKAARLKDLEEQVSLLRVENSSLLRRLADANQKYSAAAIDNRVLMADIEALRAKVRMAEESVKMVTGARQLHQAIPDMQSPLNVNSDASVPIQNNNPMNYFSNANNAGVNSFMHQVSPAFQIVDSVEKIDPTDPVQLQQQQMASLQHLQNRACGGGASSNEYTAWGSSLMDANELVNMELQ
# Test: protein-binding microarray (RPBM); PBS, 2% BSA, 51.3 ng/ul salmon testes DNA, 50 uM zinc acetate, 200 nM TF, 25 C, 1 h; high values mean tight binding
# Details: protein: recombinant; tags: N-terminal polyhistidine and DsRed monomer fusion (pET32a); chain copies: 2; label: CyDye5-dUTP incorporated in the synthesized complementary strand; 3' TTTTT single-stranded linker to array surface; dsDNA, one strand shown
# Summary of the method: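 Binding signal here means per-feature fluorescence intensity in arbitrary units. The values were read on an Axon 4000B scanner after a custom Agilent array, double-stranded by primer extension with Cy5-dUTP, was incubated with 200 nM protein at 25 °C for 1 h in PBS with 2% BSA, salmon testes DNA and 50 µM zinc acetate, then washed. The proteins were transcription factors with an N-terminal polyhistidine tag and DsRed, expressed in E. coli BL21-CodonPlus and purified on Ni–NTA.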
row,Sequence,binding signal
1,CATCACAGAATATTAATCAAAACACACGTTGATCTTACACCGGAGTCACCTAGTGCAG,3360 fluorescence intensity (a.u.)
2,CACGCCACCACCACCAACCCATCCCAATCTCTCTCTCTCTCGGAGTCACCTAGTGCAG,19800 fluorescence intensity (a.u.)
3,CGAGCCTAGCCCCACCACCTAGATGCTACTTTGATCAACCCGGAGTCACCTAGTGCAG,11700 fluorescence intensity (a.u.)
4,AAAACATAGCACACGAATTATCCACCACAGCCACCATCGACGGAGTCACCTAGTGCAG,3300 fluorescence intensity (a.u.)
5,TCCAAAATATTAGCATGGCACAGATTGGCACTACCCTTGTCGGAGTCACCTAGTGCAG,3280 fluorescence intensity (a.u.)
6,GTCAAATTAGCCACGTATGCGCCACGACAGCTAAAATCACCGGAGTCACCTAGTGCAG,14200 fluorescence intensity (a.u.)
7,CTACCATCTATCATGTGTGCGTGTGAATTGTGATGCAGAACGGAGTCACCTAGTGCAG,4600 fluorescence intensity (a.u.)
8,ATCCGGCCCGATTTGGCGGAGGGATTCGAACGCGGCGTATCGGAGTCACCTAGTGCAG,3190 fluorescence intensity (a.u.)
9,TCACGTTCAACGTTTGACTGTTCGTCTTATTTAAAATTTTCGGAGTCACCTAGTGCAG,3700 fluorescence intensity (a.u.)
10,CTCGCAGACACGACACGCCACGCCACGATAAGCCAAGACGCGGAGTCACCTAGTGCAG,4270 fluorescence intensity (a.u.)
11,GGATTGACGGGGACGCGGTGGTGGCGCCAACGGATGGACGCGGAGTCACCTAGTGCAG,6220 fluorescence intensity (a.u.)
12,AGCATTCCACGGAAAGGGAATCGTATTCGTCTCTCGTCACCGGAGTCACCTAGTGCAG,3220 fluorescence intensity (a.u.)
13,CAGCTGTTTCCTGAAATCTTGCCCCAGGGAAAACACTAGCCGGAGTCACCTAGTGCAG,20300 fluorescence intensity (a.u.)
14,CCCTCTCTCTCATGGCTGCTGCTTGCCTGGCTAGCTAGCTCGGAGTCACCTAGTGCAG,3610 fluorescence intensity (a.u.)
15,GGATCAAAACTTATCCGCGTCATCCATCTCCTTGCCCTTACGGAGTCACCTAGTGCAG,9290 fluorescence intensity (a.u.)
16,AAAGCCAGAAGAGCCCATGACTCATCTTAGGTGGGCCATGCGGAGTCACCTAGTGCAG,7620 fluorescence intensity (a.u.)
17,CTGCCTGCCTTGCTTGCCACCTATCCCAGCGCCTCTTCCACGGAGTCACCTAGTGCAG,3220 fluorescence intensity (a.u.)
18,AAGTGATACGTAGTAGCATACTATTTCCATGAAGCGTGTACGGAGTCACCTAGTGCAG,3950 fluorescence intensity (a.u.)
19,TTAAGAATGTTTGCCACGATAGCGTGACAGGCAGCGAGCACGGAGTCACCTAGTGCAG,3190 fluorescence intensity (a.u.)
20,GGGCATCGTAGTCGTACCCGATAAGCCACGTATCCGGCCTCGGAGTCACCTAGTGCAG,6840 fluorescence intensity (a.u.)
21,TTTTCCTATGACGCACTACTTGTTAGCTACTCCTCATGCACGGAGTCACCTAGTGCAG,4500 fluorescence intensity (a.u.)

# A second format for part of the listing above:
row	Sequence	binding signal
5	TCCAAAATATTAGCATGGCACAGATTGGCACTACCCTTGTCGGAGTCACCTAGTGCAG	3280 fluorescence intensity (a.u.)
7	CTACCATCTATCATGTGTGCGTGTGAATTGTGATGCAGAACGGAGTCACCTAGTGCAG	4600 fluorescence intensity (a.u.)

# Additional records follow:

row,Sequence,binding signal
1,AATACAGGTTCTTGAGCTTGTCAGCTTCCAACCAAAGCAACGGAGTCACCTAGTGCAG,29300 fluorescence intensity (a.u.)
2,CGGCTGAAATCGTCCACGCAAACACCGTCCAGAATCGCGCCGGAGTCACCTAGTGCAG,3640 fluorescence intensity (a.u.)
3,GATGGCTATCTGCCCGGGCAAAGTGTACCCTTTTACTGTTCGGAGTCACCTAGTGCAG,30800 fluorescence intensity (a.u.)
4,TAAACATAGTTTACGTGTAGACCTTTTATGTTTGTATTCTCGGAGTCACCTAGTGCAG,3480 fluorescence intensity (a.u.)
5,CTGATGCAACTTAAGTGGGCCCATCTAGAAAATGTGGCCCCGGAGTCACCTAGTGCAG,3650 fluorescence intensity (a.u.)
6,CTCCGTCGTTCGCGTGCATGCGTGAGGTGCTCCTCCTCGGCGGAGTCACCTAGTGCAG,3340 fluorescence intensity (a.u.)
7,CTAGTGGTGGTTCCTGTGTCTAGTCTGCACATGTAGAGATCGGAGTCACCTAGTGCAG,5900 fluorescence intensity (a.u.)
8,TCGATCGACATGGTGAATTGGCGATCGGGTTGGCTCGGCTCGGAGTCACCTAGTGCAG,3170 fluorescence intensity (a.u.)
9,TGAGTGAAACACATAGTAAATAGTAAAGTTACACGGTCCACGGAGTCACCTAGTGCAG,29000 fluorescence intensity (a.u.)
10,ATACAAGCTTCTTTTATTTTCCCCTTTTCTTATCCCAGAACGGAGTCACCTAGTGCAG,36700 fluorescence intensity (a.u.)
11,TATTTCCTGGGCAGAAACTAGTGCAGGTTTGGCCATAATCCGGAGTCACCTAGTGCAG,21000 fluorescence intensity (a.u.)
12,GAACGGGACCAGCTACTATAGTGAAATTTAGATTTCAAAGCGGAGTCACCTAGTGCAG,42200 fluorescence intensity (a.u.)
13,ATGAAATATATATCTAACATCAAAATAACACGTGGCGTGCCGGAGTCACCTAGTGCAG,11000 fluorescence intensity (a.u.)
14,CCTCCTCCGCGCTCGCCGGAGACAGCCACATCACAGCACACGGAGTCACCTAGTGCAG,4060 fluorescence intensity (a.u.)
15,TTCGCCGCCGGCGTCATCCTCGCCACGGCGTTCGTGCACACGGAGTCACCTAGTGCAG,4340 fluorescence intensity (a.u.)
16,AACACAACATGCTGTCAGGGCTACAAATGTTGAGAGTCTCCGGAGTCACCTAGTGCAG,28900 fluorescence intensity (a.u.)
17,TTGGTGACTGTTCATGTGTGATGTGTCGTGTCTTACGTGTCGGAGTCACCTAGTGCAG,11400 fluorescence intensity (a.u.)
18,CAAACAAGGACCGTAGACACTCTAACCAACCCCAATAACACGGAGTCACCTAGTGCAG,31300 fluorescence intensity (a.u.)
19,TCGCCACCGCCACGTCATCTCCCCACCCTCCTCCTCTTCCCGGAGTCACCTAGTGCAG,44700 fluorescence intensity (a.u.)
20,AGACGACGGACTAGTGCGTGCGTGCGTGACGCGAGAGGCTCGGAGTCACCTAGTGCAG,3430 fluorescence intensity (a.u.)
21,GAGATGACACAGCCTAACATGTGGGTCCCACGCTGACTCACGGAGTCACCTAGTGCAG,6720 fluorescence intensity (a.u.)

# From paper PMC7819943, “Rice protein-binding microarrays: a tool to detect cis-acting elements near promoter regions in rice”
